Consider two substances from publication PMC5190095.

Sequences of proteins named here, by UniProt entry; tags and fusion partners are left off.
UniProt Q99471: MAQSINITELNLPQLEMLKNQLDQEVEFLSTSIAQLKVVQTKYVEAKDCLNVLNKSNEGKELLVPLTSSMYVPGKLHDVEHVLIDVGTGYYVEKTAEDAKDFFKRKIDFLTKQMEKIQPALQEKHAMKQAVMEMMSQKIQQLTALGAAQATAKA

These are yes or no findings as the source states them, for the method shown. In cells and extracts the contact can be indirect. Some binding calls cover weakened binding; strength is not graded here. For part of these data: Tags and fused reporters may be left off the sequences shown.

Test [1] has as its target T1, Myc-tagged ΔNp63α (human) (UniProt Q9H3D4).
T1 sequence: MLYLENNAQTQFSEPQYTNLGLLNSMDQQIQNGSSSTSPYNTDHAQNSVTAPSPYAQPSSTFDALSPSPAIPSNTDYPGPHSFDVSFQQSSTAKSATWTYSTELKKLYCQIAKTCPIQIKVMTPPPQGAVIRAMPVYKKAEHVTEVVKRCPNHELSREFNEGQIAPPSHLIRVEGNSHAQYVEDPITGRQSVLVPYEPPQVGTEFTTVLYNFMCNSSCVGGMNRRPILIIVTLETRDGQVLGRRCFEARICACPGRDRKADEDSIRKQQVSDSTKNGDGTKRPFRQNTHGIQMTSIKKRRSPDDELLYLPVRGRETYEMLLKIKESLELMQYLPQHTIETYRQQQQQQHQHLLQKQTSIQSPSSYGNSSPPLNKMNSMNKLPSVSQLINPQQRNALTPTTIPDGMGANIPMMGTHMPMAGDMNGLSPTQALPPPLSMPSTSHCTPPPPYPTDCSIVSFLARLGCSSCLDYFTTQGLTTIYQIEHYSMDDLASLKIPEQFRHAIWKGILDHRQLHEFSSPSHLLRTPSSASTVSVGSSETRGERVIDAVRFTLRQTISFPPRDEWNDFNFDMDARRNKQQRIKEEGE
The test can be described thus: co-IP; H1299 cells co-transfected with Myc-tagged p63 isoform plus FLAG-MM1; EBC250 lysis buffer (250 mM NaCl, 0.5% NP-40, pH 8.0); IP with anti-FLAG or anti-Myc tag at 4°C, protein A-agarose; IB with anti-p63 and anti-FLAG.

In test [2] the target is T2, Myc-tagged ΔNp63γ (human) (UniProt Q9H3D4).
T2 sequence: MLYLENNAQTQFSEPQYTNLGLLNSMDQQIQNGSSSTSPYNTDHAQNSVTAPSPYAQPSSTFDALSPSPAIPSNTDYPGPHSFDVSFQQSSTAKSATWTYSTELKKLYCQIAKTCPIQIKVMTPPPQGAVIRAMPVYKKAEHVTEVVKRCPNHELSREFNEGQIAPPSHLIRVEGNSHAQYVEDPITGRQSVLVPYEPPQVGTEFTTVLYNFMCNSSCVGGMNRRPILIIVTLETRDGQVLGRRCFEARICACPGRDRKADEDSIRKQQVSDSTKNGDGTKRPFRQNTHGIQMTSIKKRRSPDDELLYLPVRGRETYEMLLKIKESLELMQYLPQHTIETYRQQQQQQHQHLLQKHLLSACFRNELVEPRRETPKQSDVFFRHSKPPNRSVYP
Described as above.

Test [3] has as its target T3, endogenous ΔNp63α (human (endogenous in MCF10A)) (UniProt Q9H3D4).
T3 sequence: T1 sequence
Put plainly: co-IP; endogenous proteins in MCF10A lysate; EBC250 lysis buffer; IP with anti-p63 or anti-MM1 at 4°C, normal mouse or rabbit IgG as control; IB with anti-p63 and anti-MM1.

In the case of “FLAG-tagged MM1 (from UniProt Q99471 1-154)”, the binding result in test [1] is reported as “binds”; in test [2], “no binding”.

“endogenous MM1 (from UniProt Q99471 1-154)”: the binding entry in test [3] is reported as “binds”.
